Laboratory results reported in the supplement of paper PMC12823440, “Inhibitors supercharge kinase turnover through native proteolytic circuits” (Nature, 2025).
Structures can show the parent of a compound that is named as a salt. Some of the results follow. The calls rarely recur for the same compound in another form.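 Kinases were expressed as nanoluciferase fusions in K562 cells and luminescence was read every 4 h between 2 and 18 h as percent of control, DMSO set to 100% and a positive control to 0%. A time point counts as decreased when the signal drops significantly (2 sigma). The hit call is the authors' own, does not follow from the count of time points alone, and its rule is not shown.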

Sequences of proteins named here, by UniProt entry; tags and fusion partners are left off. A change or cut given only in a name is not applied to a line headed by its entry.
UniProt Q9BUB5: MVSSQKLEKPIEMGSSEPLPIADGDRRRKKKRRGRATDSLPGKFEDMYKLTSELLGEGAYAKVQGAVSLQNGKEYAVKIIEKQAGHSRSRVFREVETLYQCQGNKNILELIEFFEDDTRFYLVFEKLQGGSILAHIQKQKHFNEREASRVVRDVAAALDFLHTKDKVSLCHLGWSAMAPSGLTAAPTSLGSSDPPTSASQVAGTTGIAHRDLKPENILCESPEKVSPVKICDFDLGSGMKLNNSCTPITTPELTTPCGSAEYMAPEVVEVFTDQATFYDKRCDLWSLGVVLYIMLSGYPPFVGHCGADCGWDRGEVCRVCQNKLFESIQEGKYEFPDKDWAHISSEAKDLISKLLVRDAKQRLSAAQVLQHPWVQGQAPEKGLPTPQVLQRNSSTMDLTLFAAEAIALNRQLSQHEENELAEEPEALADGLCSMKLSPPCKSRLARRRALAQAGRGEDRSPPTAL
UniProt O96013: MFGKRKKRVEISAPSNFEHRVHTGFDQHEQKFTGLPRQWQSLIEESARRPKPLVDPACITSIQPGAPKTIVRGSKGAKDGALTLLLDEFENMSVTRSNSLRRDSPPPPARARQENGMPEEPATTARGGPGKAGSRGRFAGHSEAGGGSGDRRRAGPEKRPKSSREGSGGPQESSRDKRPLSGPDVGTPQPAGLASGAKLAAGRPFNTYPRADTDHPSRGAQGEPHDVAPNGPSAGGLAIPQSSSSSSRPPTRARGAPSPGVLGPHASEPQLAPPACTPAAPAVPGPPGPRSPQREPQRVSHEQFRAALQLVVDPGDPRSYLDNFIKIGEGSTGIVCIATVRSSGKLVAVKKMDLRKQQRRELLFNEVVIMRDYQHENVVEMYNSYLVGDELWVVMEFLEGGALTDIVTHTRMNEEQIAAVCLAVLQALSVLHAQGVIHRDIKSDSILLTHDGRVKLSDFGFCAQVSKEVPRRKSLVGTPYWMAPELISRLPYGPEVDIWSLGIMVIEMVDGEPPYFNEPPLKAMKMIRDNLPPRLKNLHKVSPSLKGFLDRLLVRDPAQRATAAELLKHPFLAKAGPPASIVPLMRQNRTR
UniProt Q96KB5: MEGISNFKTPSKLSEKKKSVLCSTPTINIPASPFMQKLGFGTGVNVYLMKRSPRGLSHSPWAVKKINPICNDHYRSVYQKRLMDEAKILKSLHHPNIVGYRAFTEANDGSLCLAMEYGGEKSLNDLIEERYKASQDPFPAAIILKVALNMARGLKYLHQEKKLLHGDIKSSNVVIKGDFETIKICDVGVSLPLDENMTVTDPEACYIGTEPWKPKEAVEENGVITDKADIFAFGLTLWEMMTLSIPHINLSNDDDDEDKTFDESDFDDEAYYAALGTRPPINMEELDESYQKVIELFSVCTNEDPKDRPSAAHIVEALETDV
UniProt Q15118, whole entry, looked up: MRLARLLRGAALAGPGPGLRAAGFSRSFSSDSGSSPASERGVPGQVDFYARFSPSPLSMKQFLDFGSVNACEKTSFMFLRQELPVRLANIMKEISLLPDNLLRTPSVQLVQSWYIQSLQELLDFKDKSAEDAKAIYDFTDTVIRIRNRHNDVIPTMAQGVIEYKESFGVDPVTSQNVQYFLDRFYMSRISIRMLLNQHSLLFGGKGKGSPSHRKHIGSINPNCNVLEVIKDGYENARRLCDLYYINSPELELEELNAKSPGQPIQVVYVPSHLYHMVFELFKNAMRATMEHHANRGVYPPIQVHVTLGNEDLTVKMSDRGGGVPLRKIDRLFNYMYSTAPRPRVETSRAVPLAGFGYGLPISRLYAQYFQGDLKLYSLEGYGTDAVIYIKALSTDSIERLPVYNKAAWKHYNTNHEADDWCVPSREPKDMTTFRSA
UniProt P42356, whole entry, looked up: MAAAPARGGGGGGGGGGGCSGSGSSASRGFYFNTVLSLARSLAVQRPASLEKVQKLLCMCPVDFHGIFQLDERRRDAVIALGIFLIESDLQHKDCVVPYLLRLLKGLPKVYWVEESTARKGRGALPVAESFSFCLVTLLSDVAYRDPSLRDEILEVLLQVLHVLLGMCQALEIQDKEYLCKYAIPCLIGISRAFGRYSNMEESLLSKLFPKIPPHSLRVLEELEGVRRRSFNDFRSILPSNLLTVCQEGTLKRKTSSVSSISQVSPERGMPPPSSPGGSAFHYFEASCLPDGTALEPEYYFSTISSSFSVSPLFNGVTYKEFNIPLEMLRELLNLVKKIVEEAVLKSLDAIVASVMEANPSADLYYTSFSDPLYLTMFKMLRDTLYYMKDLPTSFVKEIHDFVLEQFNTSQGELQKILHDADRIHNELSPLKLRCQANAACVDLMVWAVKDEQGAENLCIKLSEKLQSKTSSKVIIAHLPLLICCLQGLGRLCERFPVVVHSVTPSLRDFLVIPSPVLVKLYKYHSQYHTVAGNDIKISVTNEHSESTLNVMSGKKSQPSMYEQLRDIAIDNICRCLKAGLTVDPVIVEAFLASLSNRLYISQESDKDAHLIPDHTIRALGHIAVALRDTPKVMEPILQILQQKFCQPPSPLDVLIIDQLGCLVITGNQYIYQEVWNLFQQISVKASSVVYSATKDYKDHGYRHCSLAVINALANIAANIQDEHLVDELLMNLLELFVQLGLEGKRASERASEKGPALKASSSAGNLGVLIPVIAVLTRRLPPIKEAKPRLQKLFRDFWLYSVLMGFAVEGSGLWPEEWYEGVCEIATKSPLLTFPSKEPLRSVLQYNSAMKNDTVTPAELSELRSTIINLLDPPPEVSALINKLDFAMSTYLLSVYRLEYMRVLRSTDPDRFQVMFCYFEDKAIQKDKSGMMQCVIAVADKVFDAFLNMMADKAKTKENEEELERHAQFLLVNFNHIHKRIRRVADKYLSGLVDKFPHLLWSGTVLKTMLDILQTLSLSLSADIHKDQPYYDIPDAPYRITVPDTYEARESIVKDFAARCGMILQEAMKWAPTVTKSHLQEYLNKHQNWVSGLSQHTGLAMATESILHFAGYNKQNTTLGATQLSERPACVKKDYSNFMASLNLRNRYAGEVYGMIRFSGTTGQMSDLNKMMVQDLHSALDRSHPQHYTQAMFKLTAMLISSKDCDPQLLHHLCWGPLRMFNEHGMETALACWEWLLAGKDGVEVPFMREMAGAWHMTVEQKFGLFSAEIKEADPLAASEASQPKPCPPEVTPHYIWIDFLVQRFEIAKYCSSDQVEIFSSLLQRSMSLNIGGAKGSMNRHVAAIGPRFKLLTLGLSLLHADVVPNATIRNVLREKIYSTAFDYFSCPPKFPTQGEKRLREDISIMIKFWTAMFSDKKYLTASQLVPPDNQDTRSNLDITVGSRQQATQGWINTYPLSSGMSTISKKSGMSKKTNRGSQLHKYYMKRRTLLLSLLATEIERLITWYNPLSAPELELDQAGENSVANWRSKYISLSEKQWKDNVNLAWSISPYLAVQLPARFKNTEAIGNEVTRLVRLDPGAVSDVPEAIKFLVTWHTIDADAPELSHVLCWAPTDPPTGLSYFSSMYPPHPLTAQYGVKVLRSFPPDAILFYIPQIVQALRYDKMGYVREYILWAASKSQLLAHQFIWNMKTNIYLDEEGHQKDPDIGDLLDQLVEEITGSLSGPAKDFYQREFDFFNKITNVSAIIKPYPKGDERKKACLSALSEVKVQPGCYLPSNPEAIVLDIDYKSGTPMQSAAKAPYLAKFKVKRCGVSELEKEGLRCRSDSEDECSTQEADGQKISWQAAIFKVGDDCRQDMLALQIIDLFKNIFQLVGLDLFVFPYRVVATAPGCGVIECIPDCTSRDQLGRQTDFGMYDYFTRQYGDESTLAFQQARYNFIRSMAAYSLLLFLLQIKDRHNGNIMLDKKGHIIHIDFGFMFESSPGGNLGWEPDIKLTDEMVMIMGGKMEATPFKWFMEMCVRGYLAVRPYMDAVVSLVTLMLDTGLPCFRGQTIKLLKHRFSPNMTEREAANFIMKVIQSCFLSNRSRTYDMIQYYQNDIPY
UniProt P53350, whole entry: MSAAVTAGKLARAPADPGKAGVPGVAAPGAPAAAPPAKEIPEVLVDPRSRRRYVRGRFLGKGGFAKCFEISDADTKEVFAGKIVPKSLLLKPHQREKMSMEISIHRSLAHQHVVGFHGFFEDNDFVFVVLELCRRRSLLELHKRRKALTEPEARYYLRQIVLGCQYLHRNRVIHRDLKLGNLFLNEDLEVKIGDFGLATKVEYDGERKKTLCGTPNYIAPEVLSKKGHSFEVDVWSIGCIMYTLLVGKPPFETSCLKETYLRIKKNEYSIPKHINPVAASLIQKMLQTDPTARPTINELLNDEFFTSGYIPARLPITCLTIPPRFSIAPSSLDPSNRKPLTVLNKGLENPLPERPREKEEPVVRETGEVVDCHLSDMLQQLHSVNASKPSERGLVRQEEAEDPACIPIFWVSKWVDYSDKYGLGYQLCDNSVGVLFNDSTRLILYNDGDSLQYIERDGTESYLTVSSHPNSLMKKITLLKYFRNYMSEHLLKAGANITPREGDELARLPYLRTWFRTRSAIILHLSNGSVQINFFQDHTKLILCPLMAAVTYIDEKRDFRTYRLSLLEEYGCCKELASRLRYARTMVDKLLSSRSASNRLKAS
UniProt Q05397, whole entry, looked up: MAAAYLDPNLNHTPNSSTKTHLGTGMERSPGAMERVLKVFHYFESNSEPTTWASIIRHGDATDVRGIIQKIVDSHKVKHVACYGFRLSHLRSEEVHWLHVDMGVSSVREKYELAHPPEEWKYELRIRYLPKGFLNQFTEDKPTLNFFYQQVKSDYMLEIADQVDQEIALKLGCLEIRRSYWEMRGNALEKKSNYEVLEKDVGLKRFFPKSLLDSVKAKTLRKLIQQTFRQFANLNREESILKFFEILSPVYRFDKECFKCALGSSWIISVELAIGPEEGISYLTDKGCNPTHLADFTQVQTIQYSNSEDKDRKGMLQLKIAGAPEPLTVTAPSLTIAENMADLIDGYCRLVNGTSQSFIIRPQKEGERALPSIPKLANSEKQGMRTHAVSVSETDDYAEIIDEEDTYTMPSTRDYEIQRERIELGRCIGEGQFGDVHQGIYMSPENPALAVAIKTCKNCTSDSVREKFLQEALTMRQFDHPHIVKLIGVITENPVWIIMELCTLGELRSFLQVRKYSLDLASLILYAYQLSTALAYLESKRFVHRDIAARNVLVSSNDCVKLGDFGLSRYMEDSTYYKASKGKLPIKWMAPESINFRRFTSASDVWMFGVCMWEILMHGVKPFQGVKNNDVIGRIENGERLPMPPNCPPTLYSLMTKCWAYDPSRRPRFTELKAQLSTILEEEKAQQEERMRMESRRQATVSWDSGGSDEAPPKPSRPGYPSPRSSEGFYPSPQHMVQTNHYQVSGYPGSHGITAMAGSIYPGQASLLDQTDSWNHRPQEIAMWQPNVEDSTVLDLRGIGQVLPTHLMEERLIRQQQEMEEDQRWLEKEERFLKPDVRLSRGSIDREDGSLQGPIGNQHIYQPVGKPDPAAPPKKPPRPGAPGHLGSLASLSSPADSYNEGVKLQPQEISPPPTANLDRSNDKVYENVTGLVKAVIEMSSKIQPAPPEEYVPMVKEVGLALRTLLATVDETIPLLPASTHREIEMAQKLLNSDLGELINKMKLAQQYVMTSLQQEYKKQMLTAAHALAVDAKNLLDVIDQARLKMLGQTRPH

Assays:
Experiment in all cases: kinase-Nluc reporter destabilization hit call (1 = scored as downregulated) (binary); higher = compound decreases kinase abundance
Conditions in all cases: K562; 2-18 h
MAPK1 = MAPK1 (UniProt P28482)
MAPK4 = MAPK4 (UniProt P31152)
MAPKAPK2 = MAPKAPK2 (UniProt P49137)
MKNK1 = MKNK1 (UniProt Q9BUB5)
NTRK2 = NTRK2 (UniProt Q16620)
NTRK3 = NTRK3 (UniProt Q16288)
PAK4 = PAK4 (UniProt O96013)
PBK = PBK (UniProt Q96KB5)
PDGFRB = PDGFRB (UniProt P09619)
PDK1 = PDK1 (UniProt Q15118)
PDPK1 = PDPK1 (UniProt O15530)
PIK4CA = PIK4CA (UniProt P42356)
PIK4CB = PIK4CB (UniProt Q9UBF8)
PLK1 = PLK1 (UniProt P53350)
PRKAA1 = PRKAA1 (UniProt Q13131)
PRKCA = PRKCA (UniProt P17252)
PTK2 = PTK2 (UniProt Q05397)
PTK2B = PTK2B (UniProt Q14289)
RAF1 = RAF1 (UniProt P04049)
[1] = target: RAF1_S257L (clone: RAF1_mut) (UniProt P04049)

Structure (SMILES) | kinase-Nluc reporter destabilization hit call (MAPK1) | kinase-Nluc reporter destabilization hit call (MAPK4) | kinase-Nluc reporter destabilization hit call (MAPKAPK2) | kinase-Nluc reporter destabilization hit call (MKNK1) | kinase-Nluc reporter destabilization hit call (NTRK2) | kinase-Nluc reporter destabilization hit call (NTRK3) | kinase-Nluc reporter destabilization hit call (PAK4) | kinase-Nluc reporter destabilization hit call (PBK) | kinase-Nluc reporter destabilization hit call (PDGFRB) | kinase-Nluc reporter destabilization hit call (PDK1) | kinase-Nluc reporter destabilization hit call (PDPK1) | kinase-Nluc reporter destabilization hit call (PIK4CA) | kinase-Nluc reporter destabilization hit call (PIK4CB) | kinase-Nluc reporter destabilization hit call (PLK1) | kinase-Nluc reporter destabilization hit call (PRKAA1) | kinase-Nluc reporter destabilization hit call (PRKCA) | kinase-Nluc reporter destabilization hit call (PTK2) | kinase-Nluc reporter destabilization hit call (PTK2B) | kinase-Nluc reporter destabilization hit call (RAF1) | kinase-Nluc reporter destabilization hit call [1]
Cn1c(=O)c(F)c(Nc2ccc(I)cc2F)c2c(=O)n(C[C@@H](O)CO)cnc21 (10 µM) | inactive: 0 | inactive: 0 | inactive: 0 | inactive: 0 | inactive: 0 | inactive: 0 | inactive: 0 | inactive: 0 | inactive: 0 | inactive: 0 | inactive: 0 | inactive: 0 | inactive: 0 | inactive: 0 | inactive: 0 | inactive: 0 | inactive: 0 | inactive: 0 | inactive: 0 | inactive: 0
OCCNC1CCCc2c1[nH]c1ccc(-c3ccccc3)cc21 (stereo not given) (2.5 µM) | inactive: 0 | inactive: 0 | inactive: 0 | inactive: 0 | inactive: 0 | inactive: 0 | inactive: 0 | inactive: 0 | inactive: 0 | inactive: 0 | inactive: 0 | inactive: 0 | inactive: 0 | inactive: 0 | inactive: 0 | inactive: 0 | inactive: 0 | inactive: 0 | inactive: 0 | inactive: 0
CNC(=O)c1ccc(-c2cnc3cnc(C(=O)N(C)c4ccc(Cl)cc4)cn23)cc1 (2.5 µM) | inactive: 0 | inactive: 0 | inactive: 0 | inactive: 0 | inactive: 0 | inactive: 0 | inactive: 0 | inactive: 0 | inactive: 0 | inactive: 0 | inactive: 0 | inactive: 0 | inactive: 0 | inactive: 0 | inactive: 0 | inactive: 0 | inactive: 0 | inactive: 0 | inactive: 0 | inactive: 0
COc1ccc2[nH]cc(/C=C3\C(=O)Nc4ccc(NC(=O)CCN5CCCCC5)cc43)c2c1 (2.5 µM) | inactive: 0 | inactive: 0 | inactive: 0 | inactive: 0 | inactive: 0 | inactive: 0 | inactive: 0 | inactive: 0 | inactive: 0 | inactive: 0 | inactive: 0 | inactive: 0 | inactive: 0 | inactive: 0 | inactive: 0 | inactive: 0 | inactive: 0 | inactive: 0 | inactive: 0 | inactive: 0
COc1ccc(Cn2cc(C(=O)N=Nc3c(O)[nH]c4c(C)cccc34)nn2)cc1 [MARK4 inhibitor 1] (10 µM) | inactive: 0 | inactive: 0 | inactive: 0 | inactive: 0 | inactive: 0 | inactive: 0 | inactive: 0 | inactive: 0 | inactive: 0 | inactive: 0 | inactive: 0 | inactive: 0 | inactive: 0 | inactive: 0 | inactive: 0 | inactive: 0 | inactive: 0 | inactive: 0 | inactive: 0 | inactive: 0
COc1ccc(C(=C2C(=O)Nc3ccccc32)c2ccc(OC)cc2)cc1 (10 µM) | inactive: 0 | inactive: 0 | inactive: 0 | inactive: 0 | inactive: 0 | inactive: 0 | inactive: 0 | inactive: 0 | inactive: 0 | inactive: 0 | inactive: 0 | inactive: 0 | inactive: 0 | inactive: 0 | inactive: 0 | inactive: 0 | inactive: 0 | inactive: 0 | inactive: 0 | inactive: 0
CCc1cc(O)c(F)cc1-c1ccc2c(-c3nc4c([nH]3)CN(C3CCN(C)CC3)CC4)n[nH]c2c1 [JAK-IN-5 (hydrochloride)] (2 µM) | inactive: 0 | inactive: 0 | inactive: 0 | inactive: 0 | inactive: 0 | inactive: 0 | inactive: 0 | inactive: 0 | inactive: 0 | inactive: 0 | inactive: 0 | inactive: 0 | inactive: 0 | inactive: 0 | inactive: 0 | inactive: 0 | inactive: 0 | inactive: 0 | inactive: 0 | active: 1
CO[C@H]1C[C@@H]2CC[C@@H](C)[C@@](O)(O2)C(=O)C(=O)N2CCCC[C@H]2C(=O)O[C@H]([C@H](C)C[C@@H]2CC[C@@H](O)[C@H](OC)C2)CC(=O)[C@H](C)/C=C(\C)[C@@H](O)[C@@H](OC)C(=O)[C@H](C)C[C@H](C)/C=C/C=C/C=C/1C [Rapamycin] (10 µM) | inactive: 0 | inactive: 0 | inactive: 0 | inactive: 0 | inactive: 0 | inactive: 0 | inactive: 0 | inactive: 0 | inactive: 0 | inactive: 0 | inactive: 0 | inactive: 0 | inactive: 0 | inactive: 0 | inactive: 0 | inactive: 0 | inactive: 0 | inactive: 0 | inactive: 0 | inactive: 0
COc1ccc([C@@H]2CC(=O)c3c(O)cc(O)cc3O2)cc1O [Hesperetin] (10 µM) | inactive: 0 | inactive: 0 | inactive: 0 | inactive: 0 | inactive: 0 | inactive: 0 | inactive: 0 | inactive: 0 | inactive: 0 | inactive: 0 | inactive: 0 | inactive: 0 | inactive: 0 | inactive: 0 | inactive: 0 | inactive: 0 | inactive: 0 | inactive: 0 | inactive: 0 | inactive: 0
O=C1Nc2nc(-c3c(O)cccc3OCC3CC3)cc([C@@H]3CCCNC3)c2CO1 [Bay 65-1942 (hydrochloride)] (10 µM) | inactive: 0 | inactive: 0 | inactive: 0 | inactive: 0 | inactive: 0 | inactive: 0 | inactive: 0 | inactive: 0 | inactive: 0 | inactive: 0 | inactive: 0 | inactive: 0 | inactive: 0 | inactive: 0 | inactive: 0 | inactive: 0 | inactive: 0 | inactive: 0 | inactive: 0 | inactive: 0
O=C(/C=C/c1ccc(O[C@@H]2O[C@H](CO)[C@@H](O)[C@H](O)[C@H]2O[C@@H]2OC[C@](O)(CO)[C@H]2O)cc1)c1ccc(O)cc1O [Isoliquiritin apioside] (10 µM) | inactive: 0 | inactive: 0 | inactive: 0 | inactive: 0 | inactive: 0 | inactive: 0 | inactive: 0 | inactive: 0 | inactive: 0 | inactive: 0 | inactive: 0 | inactive: 0 | inactive: 0 | inactive: 0 | inactive: 0 | inactive: 0 | inactive: 0 | inactive: 0 | inactive: 0 | inactive: 0
CC/C=C\C/C=C\C/C=C\CCCCCCCC(=O)O [α-Linolenic acid] (10 µM) | inactive: 0 | inactive: 0 | inactive: 0 | inactive: 0 | inactive: 0 | inactive: 0 | inactive: 0 | inactive: 0 | inactive: 0 | inactive: 0 | inactive: 0 | inactive: 0 | inactive: 0 | inactive: 0 | inactive: 0 | inactive: 0 | inactive: 0 | inactive: 0 | inactive: 0 | inactive: 0
N[C@H](Cc1c[nH]c2ccccc12)C(=O)N/N=C/c1ccc2nccnc2c1 [Rhosin (hydrochloride)] (10 µM) | inactive: 0 | inactive: 0 | inactive: 0 | inactive: 0 | inactive: 0 | inactive: 0 | inactive: 0 | inactive: 0 | inactive: 0 | inactive: 0 | inactive: 0 | inactive: 0 | inactive: 0 | inactive: 0 | inactive: 0 | inactive: 0 | inactive: 0 | inactive: 0 | inactive: 0 | inactive: 0
CN1CCN(c2ccc(C(=O)Nc3cc(-c4cccc(NS(=O)(=O)c5ccccc5)c4)[nH]n3)cc2)CC1 [BPR1J-097 Hydrochloride] (2.5 µM) | inactive: 0 | inactive: 0 | inactive: 0 | inactive: 0 | inactive: 0 | inactive: 0 | inactive: 0 | inactive: 0 | inactive: 0 | inactive: 0 | inactive: 0 | inactive: 0 | inactive: 0 | inactive: 0 | inactive: 0 | inactive: 0 | inactive: 0 | inactive: 0 | inactive: 0 | inactive: 0
COc1cccc(-n2c(=O)[nH]c3cc(Cl)n(-c4ccc(-c5cccc(OC)c5O)cc4)c3c2=O)c1 (2.5 µM) | inactive: 0 | inactive: 0 | inactive: 0 | inactive: 0 | inactive: 0 | inactive: 0 | inactive: 0 | inactive: 0 | inactive: 0 | inactive: 0 | inactive: 0 | inactive: 0 | inactive: 0 | inactive: 0 | inactive: 0 | inactive: 0 | inactive: 0 | inactive: 0 | inactive: 0 | inactive: 0
COc1cc([N+](=O)[O-])ccc1S(=O)(=O)N1C[C@@H](CN2CCN(c3ccccn3)CC2)[C@H](c2cccc(F)c2)C1 (relative stereo) (10 µM) | inactive: 0 | inactive: 0 | inactive: 0 | inactive: 0 | inactive: 0 | inactive: 0 | inactive: 0 | inactive: 0 | inactive: 0 | inactive: 0 | inactive: 0 | inactive: 0 | inactive: 0 | inactive: 0 | inactive: 0 | inactive: 0 | inactive: 0 | inactive: 0 | inactive: 0 | inactive: 0
CC(C)=CCC[C@](C)(O[C@@H]1O[C@H](CO)[C@@H](O)[C@H](O)[C@H]1O)[C@H]1CC[C@]2(C)[C@@H]1[C@H](O)C[C@@H]1[C@@]3(C)CC[C@H](O)C(C)(C)[C@@H]3[C@@H](O[C@@H]3O[C@H](CO)[C@@H](O)[C@H](O)[C@H]3O[C@@H]3O[C@@H](C)[C@H](O)[C@@H](O)[C@H]3O)C[C@]12C [Ginsenoside Re] (10 µM) | inactive: 0 | inactive: 0 | inactive: 0 | inactive: 0 | inactive: 0 | inactive: 0 | inactive: 0 | inactive: 0 | inactive: 0 | inactive: 0 | inactive: 0 | inactive: 0 | inactive: 0 | inactive: 0 | inactive: 0 | inactive: 0 | inactive: 0 | inactive: 0 | inactive: 0 | inactive: 0
NCCN1CCN(C/C=C/C(=O)N2CCC[C@@H](n3nc(-c4ccc(Oc5ccccc5)cc4)c4c(N)ncnc43)C2)CC1 [Ibrutinib-MPEA] (10 µM) | inactive: 0 | inactive: 0 | inactive: 0 | inactive: 0 | inactive: 0 | inactive: 0 | inactive: 0 | inactive: 0 | inactive: 0 | inactive: 0 | inactive: 0 | inactive: 0 | inactive: 0 | inactive: 0 | inactive: 0 | inactive: 0 | inactive: 0 | inactive: 0 | inactive: 0 | inactive: 0

Pulled by compound from above, 2 records:
Structure (SMILES) | kinase-Nluc reporter destabilization hit call (MAPK1) | kinase-Nluc reporter destabilization hit call (MAPK4) | kinase-Nluc reporter destabilization hit call (MAPKAPK2) | kinase-Nluc reporter destabilization hit call (MKNK1) | kinase-Nluc reporter destabilization hit call (NTRK2) | kinase-Nluc reporter destabilization hit call (NTRK3) | kinase-Nluc reporter destabilization hit call (PAK4) | kinase-Nluc reporter destabilization hit call (PBK) | kinase-Nluc reporter destabilization hit call (PDGFRB) | kinase-Nluc reporter destabilization hit call (PDK1) | kinase-Nluc reporter destabilization hit call (PDPK1) | kinase-Nluc reporter destabilization hit call (PIK4CA) | kinase-Nluc reporter destabilization hit call (PIK4CB) | kinase-Nluc reporter destabilization hit call (PLK1) | kinase-Nluc reporter destabilization hit call (PRKAA1) | kinase-Nluc reporter destabilization hit call (PRKCA) | kinase-Nluc reporter destabilization hit call (PTK2) | kinase-Nluc reporter destabilization hit call (PTK2B) | kinase-Nluc reporter destabilization hit call (RAF1) | kinase-Nluc reporter destabilization hit call [1]
COc1ccc2[nH]cc(/C=C3\C(=O)Nc4ccc(NC(=O)CCN5CCCCC5)cc43)c2c1 (2.5 µM) | inactive: 0 | inactive: 0 | inactive: 0 | inactive: 0 | inactive: 0 | inactive: 0 | inactive: 0 | inactive: 0 | inactive: 0 | inactive: 0 | inactive: 0 | inactive: 0 | inactive: 0 | inactive: 0 | inactive: 0 | inactive: 0 | inactive: 0 | inactive: 0 | inactive: 0 | inactive: 0
COc1ccc(Cn2cc(C(=O)N=Nc3c(O)[nH]c4c(C)cccc34)nn2)cc1 [MARK4 inhibitor 1] (10 µM) | inactive: 0 | inactive: 0 | inactive: 0 | inactive: 0 | inactive: 0 | inactive: 0 | inactive: 0 | inactive: 0 | inactive: 0 | inactive: 0 | inactive: 0 | inactive: 0 | inactive: 0 | inactive: 0 | inactive: 0 | inactive: 0 | inactive: 0 | inactive: 0 | inactive: 0 | inactive: 0
